The target in the assay is T1, recombinant His-tagged Endocan (UniProt Q9NQ30).
T1 sequence: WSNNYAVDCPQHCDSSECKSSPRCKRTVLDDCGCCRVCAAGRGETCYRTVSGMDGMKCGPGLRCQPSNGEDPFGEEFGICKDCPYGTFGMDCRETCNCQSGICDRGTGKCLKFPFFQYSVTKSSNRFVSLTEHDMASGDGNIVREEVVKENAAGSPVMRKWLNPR
In words: affinity purification with mass spectrometry; His-tagged Endocan immobilised on HisPur Ni-NTA magnetic beads, incubated with plasma membrane proteins of gliomasphere cells solubilised in 50 mM Tris-HCl, 150 mM NaCl, 1% Triton X100, 0.1% sodium deoxycholate, pH 7.5; eluted with 8 M urea, 2 M …; LC-MS/MS; only the target purified.

By UniProt entry, the sequences of proteins in these tests, tags left out. Residues count along the entry.
UniProt P20701, residues 26-1170: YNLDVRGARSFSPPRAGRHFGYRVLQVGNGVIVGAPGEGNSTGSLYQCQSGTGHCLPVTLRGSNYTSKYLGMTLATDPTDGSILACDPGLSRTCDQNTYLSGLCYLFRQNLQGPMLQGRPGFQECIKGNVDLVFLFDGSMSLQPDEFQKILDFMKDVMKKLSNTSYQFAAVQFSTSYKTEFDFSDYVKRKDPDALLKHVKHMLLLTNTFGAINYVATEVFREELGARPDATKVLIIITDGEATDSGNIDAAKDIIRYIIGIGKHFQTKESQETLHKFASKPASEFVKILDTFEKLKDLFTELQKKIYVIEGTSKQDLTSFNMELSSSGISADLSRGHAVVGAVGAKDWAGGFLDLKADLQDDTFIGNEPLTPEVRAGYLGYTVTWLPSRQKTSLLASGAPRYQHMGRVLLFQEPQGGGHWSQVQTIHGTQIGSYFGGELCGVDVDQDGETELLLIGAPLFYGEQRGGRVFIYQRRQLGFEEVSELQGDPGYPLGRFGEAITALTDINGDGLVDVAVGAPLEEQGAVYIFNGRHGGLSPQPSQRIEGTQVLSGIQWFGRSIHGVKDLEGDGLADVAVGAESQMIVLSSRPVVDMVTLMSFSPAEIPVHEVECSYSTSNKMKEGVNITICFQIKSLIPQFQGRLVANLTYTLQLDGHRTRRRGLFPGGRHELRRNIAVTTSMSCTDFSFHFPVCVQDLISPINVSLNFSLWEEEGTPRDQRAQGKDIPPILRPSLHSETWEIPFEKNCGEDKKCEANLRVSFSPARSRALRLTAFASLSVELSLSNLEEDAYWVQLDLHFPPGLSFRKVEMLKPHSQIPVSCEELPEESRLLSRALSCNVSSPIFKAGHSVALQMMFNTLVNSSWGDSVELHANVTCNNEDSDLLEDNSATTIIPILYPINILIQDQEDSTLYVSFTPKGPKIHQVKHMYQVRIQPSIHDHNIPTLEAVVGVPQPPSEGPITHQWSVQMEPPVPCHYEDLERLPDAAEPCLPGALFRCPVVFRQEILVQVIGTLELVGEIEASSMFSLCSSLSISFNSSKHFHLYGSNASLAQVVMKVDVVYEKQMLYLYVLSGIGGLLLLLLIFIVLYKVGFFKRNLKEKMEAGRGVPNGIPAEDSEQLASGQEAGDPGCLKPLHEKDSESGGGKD
UniProt P16234, residues 24-1089: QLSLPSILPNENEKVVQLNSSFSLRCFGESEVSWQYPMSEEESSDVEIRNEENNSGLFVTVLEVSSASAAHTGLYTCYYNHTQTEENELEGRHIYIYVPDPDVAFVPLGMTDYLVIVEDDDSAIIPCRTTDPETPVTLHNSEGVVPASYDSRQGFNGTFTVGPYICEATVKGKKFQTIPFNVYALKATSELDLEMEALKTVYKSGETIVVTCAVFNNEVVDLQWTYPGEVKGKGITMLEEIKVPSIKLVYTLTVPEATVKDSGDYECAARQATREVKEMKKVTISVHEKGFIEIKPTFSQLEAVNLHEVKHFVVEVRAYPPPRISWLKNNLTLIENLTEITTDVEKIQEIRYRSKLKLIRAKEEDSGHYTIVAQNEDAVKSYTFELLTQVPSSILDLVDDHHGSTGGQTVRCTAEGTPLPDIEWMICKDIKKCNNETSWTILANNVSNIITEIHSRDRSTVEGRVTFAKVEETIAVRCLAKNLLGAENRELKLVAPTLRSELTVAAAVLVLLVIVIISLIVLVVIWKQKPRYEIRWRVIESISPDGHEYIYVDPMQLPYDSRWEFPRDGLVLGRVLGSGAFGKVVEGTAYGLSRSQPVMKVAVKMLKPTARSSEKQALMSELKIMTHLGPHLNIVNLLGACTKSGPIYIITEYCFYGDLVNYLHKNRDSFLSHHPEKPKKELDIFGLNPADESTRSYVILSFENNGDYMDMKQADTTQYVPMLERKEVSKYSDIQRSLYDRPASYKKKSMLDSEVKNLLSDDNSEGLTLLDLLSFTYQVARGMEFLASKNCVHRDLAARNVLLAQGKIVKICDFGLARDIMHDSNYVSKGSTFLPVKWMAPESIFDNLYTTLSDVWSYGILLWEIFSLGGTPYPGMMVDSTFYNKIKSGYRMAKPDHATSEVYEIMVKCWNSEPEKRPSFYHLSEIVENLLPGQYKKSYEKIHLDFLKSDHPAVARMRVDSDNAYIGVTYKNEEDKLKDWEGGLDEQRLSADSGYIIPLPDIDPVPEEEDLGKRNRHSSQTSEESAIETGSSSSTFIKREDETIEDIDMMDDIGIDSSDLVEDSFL

The values below come from PMC11707362, “Endothelial-secreted Endocan activates PDGFRA and regulates vascularity and spatial phenotype in glioblastoma” (Nature Communications, 2025).

These are yes or no findings as the source states them, for the method shown. In cells and extracts the contact can be indirect. These calls come from enrichment with a bait or labelling near it, and not all partners need be listed. A no says only that the protein was not detected with the bait. Sequences can lack the tags named with a protein.

For the substance “CD11a integrin, endogenous, in the membrane protein fraction of human gliomasphere cells (from UniProt P20701 26-1170) (receptor)”, the binding entry is on record as “no binding”.

Consider “PDGFRA, endogenous, in the integral membrane protein fraction of human gliomasphere cells (from UniProt P16234 24-1089) (receptor)”, for which the binding result is given as “binds”.
